Laboratory results from patent US20050003401, “Pfu replication accessory factors and methods of use” (Stratagene, published 2005).
For at least one entry, the source does not settle the construct or the ends of the probe.

System: RFC complex (P55/P38), native immunoaffinity purified (Pyrococcus furiosus)
Assay: activity assay
Details: ATPase stimulated by primed M13 DNA; enhances primer extension by Pfu + PCNA; purified native protein; folded or branched DNA

GGTTTTCCCAGTCACGACGTTGTAAAACGACGGCCAGTGC [40-mer primer annealed to single-stranded M13mp18]
activity on this sequence: active
